A short description of this experiment: Hydroxyapatite (HAP) affinity by chromatographic profiling on HAP column. The format is binding. As for the experimental part:
Mineral affinity for hydroxyapatite was evaluated by chromatographic profiling of different bisphosphonate compounds. Hydroxyapatite (HAP) ceramic spheres (20 mm diameter, BioRad) were packed in a 0.66×6.5 cm glass column (Omnifit®). The HAP columns were attached to a Waters 650E Advanced Protein Purification System (FPLC) (Millipore) in a running buffer of 1 mM KPO3 at pH 6.8. Each compound was prepared in 1 mM KPO3 buffer at pH6.8 and 400 μmoles were injected into the FPLC system. The bisphosphonate compounds were eluted in a gradient of phosphate buffer, concentration increasing from 1 mM up to 1000 mM and detected by a Waters 484 UV absorbance detector (Millipore) at their optimum wavelength. The results set forth in Table 1 show the HAP retention profiles of each compound and that some compounds have longer retention times.

The results in this text go back to patent US9949992B2, “Bisphosphonate compositions and methods for treating and\or reducing cardiac dysfunction” (DUKE UNIVERSITY, priority 2011, dated 2018).

`NCCCC(O)(P(=O)(O)O)P(=O)(O)O` [Alendronate]: the “HAP mineral binding (retention time in mins)” value (HAP column, phosphate gradient 1 mM to 1000 mM, pH 6.8) came out at 17.5 min. In addition, the “HAP retention time / affinity for hydroxyapatite (in words)” value (comparison among tested bisphosphonates) is “longest retention time”.
